Assay results published in patent publication US20090068207A1, “Compositions Containing Beta 2-Glycoprotein I-Derived Peptides for the Prevention and/or Treatment of Vascular Disease” (Vascular Biogenics Ltd., priority 2005, published 2009).
Some entries share one result that the patent states for a list of compounds.

Test system: LDL-RD mice
Assay: Aortic sinus lesion area after nasal tolerance induction, Western diet
Assay type: in vivo
Details: 10 μg/mouse, brief exposure (3 days), LDL receptor-deficient mice

B1: β2GPI: beta2-glycoprotein I, species not stated at the place (human or bovine; FIG. 7 legend says bovine) (protein, UniProt P17690 20-345, looked up)
Beta-2-glycoprotein 1: GRTCPKPDELPFSTVVPLKRTYEPGEQIVFSCQPGYVSRGGIRRFTCPLTGLWPINTLKCMPRVCPFAGILENGTVRYTTFEYPNTISFSCHTGFYLKGASSAKCTEEGKWSPDLPVCAPITCPPPPIPKFASLSVYKPLAGNNSFYGSKAVFKCLPHHAMFGNDTVTCTEHGNWTQLPECREVRCPFPSRPDNGFVNHPANPVLYYKDTATFGCHETYSLDGPEEVECSKFGNWSAQPSCKASCKLSIKRATVIYEGERVAIQNKFKNGMLHGQKVSFFCKHKEKKCSYTEDAQCIDGTIEIPKCFKEHSSLAFWKTDASDVKPC
protection from atherogenesis: greater than 65%
